From article PMC4701952
No constants are given. Whether binding was seen depends on the method and setting. Some results given as binding are weak or reduced against the parent protein; the word gives no strength.

By UniProt entry, the sequences of proteins in these tests, tags left out. Where a name states a change or a piece, a line headed by the entry shows the natural chain unless it says otherwise.
UniProt P17839: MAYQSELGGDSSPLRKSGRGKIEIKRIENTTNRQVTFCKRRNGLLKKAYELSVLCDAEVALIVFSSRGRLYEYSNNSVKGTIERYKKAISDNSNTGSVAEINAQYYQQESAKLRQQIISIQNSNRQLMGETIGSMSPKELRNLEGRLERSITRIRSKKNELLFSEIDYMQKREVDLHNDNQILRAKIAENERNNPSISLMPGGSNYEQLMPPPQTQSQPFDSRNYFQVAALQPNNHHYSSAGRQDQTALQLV
UniProt O22456: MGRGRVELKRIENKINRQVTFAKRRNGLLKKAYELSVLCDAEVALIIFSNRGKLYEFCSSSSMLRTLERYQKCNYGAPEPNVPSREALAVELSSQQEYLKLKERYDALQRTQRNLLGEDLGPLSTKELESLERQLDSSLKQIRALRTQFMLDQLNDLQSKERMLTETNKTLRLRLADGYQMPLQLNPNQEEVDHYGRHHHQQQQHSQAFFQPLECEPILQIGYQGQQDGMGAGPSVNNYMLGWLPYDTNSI

Biological target: AGAMOUS (AG), full length (A. thaliana) (UniProt P17839)
Test: native gel or EMSA; in vitro translated proteins (4 ul TnT mix, not purified) with 5-10 nM DY-682 labelled 121 bp SOC1 promoter DNA with two CArG boxes; complexes seen on DNA, assigned as putative dimer and tetramer

binding	Substance
binds	SEP3 full length wild type (from UniProt O22456 1-251)
binds	SEP3^L115R (from UniProt O22456 1-251)
